B1: glmS ribozyme (parent)
chain: AUAAAAGCGCCAGAACUACAGAAAUGUAGUUGACGAGGAGGAGGUUUAUCGAAUUUUCGGCGGAUGCCUCCAAA

± gives the standard error. Many entries were measured with a wide error.

One may read the KM as the substrate concentration at which the rate is half of its maximum.

Variants of B1 are the subject of the first series. Nature of the series: KM; higher = weaker cofactor use; RNA array. The following applies: with glucosamine-6-phosphate. In outline:
(§1)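 Glucosamine-6-phosphate in HEPES/KCl/Mg(OAc)2 buffer, at 40 μM to 10 mM, was flowed over barcoded ribozyme variants transcribed in situ by E. coli RNA polymerase on sequenced MiSeq chips. Tracking was through a hybridised Cy3 probe at 37 °C. kobs, kcat and KM came from exponential decay fits and weighted Michaelis–Menten fits of normalised per-tile medians.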
For the variant AUAAAAGCGCCACUACUACAGAAAUGUAGUUGACGAGGAGGAGGUUUAUCGAAUUUUCGGCGGAUGCCUCCAAA, the KM was 2100 ± 320 µM.
Regarding AUAAAAGCGCCAAAACUACAGAAAUGUAGUUGACGAGGAAGAGGUUUAUCGAAUUUUCGGCGGAUGCCUCCAAA, the KM amounted to 6100 ± 1200 µM.
The same measure, in the same setting: the result for AUAAAAGCGCCUGAACUACAGAAAUGUAGUAGACGAGGAGGAGGUUUAUCGAAUUUUCGGCGGAUGCCUCCAAA reads 2890 ± 880 µM; that for AUAAAAGCGCCAAAACUACAGAAAUGUAGGUGACGAGGAGGAGGUUUAUCGAAUUUUCGGCGGAUGCCUCCAAA, 6050 ± 1100 µM.
On the same count and under the same terms, the result for AUAAAAGCGCCAUAACUACAGAAAUGUAGUUGACGAGGAUGAGGUUUAUCGAAUUUUCGGCGGAUGCCUCCAAA reads 568 ± 390 µM; that for AUAAAAGCGCCAGCACUACAGAAAUGUAGUUGACGAGGAGGAGGUUUAUCGAAUUUUAGGCGGAUGCCUCCAAA, 3250 ± 500 µM; that for AUAAAAGCGCCAAAACUACAGAAAUGUAGUUGACGAGGAGGAGGUUUAUCGAAUUUUCGGGGGAUGCCUCCAAA, 127 ± 17 µM.
Same read-out and setting: the figure for AUAAAAGCGCCACAACUACAGAAAUGUAGUUGACGAGGACGAGGUUUAUCGAAUUUUCGGCGGAUGCCUCCAAA is 28300 ± 17000 µM; for AUAAAAGCGCCUGAACUACAGAAAUGUAGUUGACGAGGAGGAGGUUUAUCGAACUUUCGGCGGAUGCCUCCAAA it is 422 ± 230 µM.
AUAAAAGCGCCAAAACUACAGAAAUGUAGUUGACGAGGAGGAGGUUUAUCGAAUUUUCGGCGGAUGCCUCCAAA: the KM came out at 4830 ± 750 µM.
Consider AUAAAAGCGCCAGCACUACAGAAAUGUAGUUGACGAGGAGGAGGUUUAUCGAAUUUACGGCGGAUGCCUCCAAA, for which the KM turned out to be 10600 ± 1600 µM.
Regarding AUAAAAGCGCCAUAACUACAGAAAUGUAGUUGACGAGGAGGCGGUUUAUCGAAUUUUCGGCGGAUGCCGCCAAA, the KM is 2840 ± 2300 µM.
Same read-out and setting: the figure for AUAAAAGCGCCAGCACUACAGAAAUGUAGUUGACGAGGAAGAGGUUUAUCGAAUUUUCGGCGGAUGCCUCCAAA is 1850 ± 1300 µM; for AUAAAAGCGCCUGAACUACAGAAAUGUAGUUGACGAUGAGGAGGUUUAUCGAAUUUUCGGCGGAUGCCUCCAAA it is 17200 ± 8700 µM; for AUAAAAGCGCCAAAACUACAGAAAUGUAGUUGACGAGGAGGAGGUUUACCGAAUUUUCGGCGGAUGCCUCCAAA it is 177 ± 160 µM.
Same read-out and setting: the figure for AUAAAAGCGCCAUAACUACAGAAAUGUAGUUGACGAGGAGGAGGUUUAUCGAAGUUUCGGCGGAUGCCUCCAAA is 1090 ± 590 µM; for AUAAAAGCGCCAAAACUACAGAAAUGUAGUUGACGAGGAGGAGGUUUAUCGAUUUUUAGGCGGAUGCCUCCAAA it is 3780 ± 2600 µM.
On the same count and under the same terms, the figure for AUAAAAGCGCCUGAACUACAGAAAUGUAGUUGACGAGGAGGAGGUUUAUCGAAUUUUCGGCGGACGCCUCCAAA is 1820 ± 1000 µM; for AUAAAAGCGCCAAAACUACAGAAAUGUAGUUGACGAGGAGGAGGUUUAUCGAAUUUUCAGCGGAUGCCUCCAAA it is 210 ± 160 µM; for AUAAAAGCGCCAGCACUACAGAAAUGUAGCUGACGAGGAGGAGGUUUAUCGAAUUUUCGGCGGAUGCCUCCAAA it is 151 ± 50 µM.
For the variant AUAAAAGCGCCUGAACUACAGAAAUGUAGUUGACGAGGGGGAGGUUUAUCGAAUUUUCGGCGGAUGCCUCCAAA, the KM is 99.8 ± 75 µM.
On the same count and under the same terms, the figure for AUAAAAGCGCCUGAACUACAGAAAUGUAGUUGACGAGGAGGCGGUUUAUCGAAUUUUCGGCGGAUGCCUCCAAA is 869 ± 540 µM; for AUAAAAGCGCCACAACUACAGAAAUGUAGUUGACGAGGAGGAGGAUUAUCGAAUUUUCGGCGGAUGCCUCCAAA it is 5140 ± 3500 µM.
Same read-out and setting: the result for AUAAAAGCGCCACAACUACAGAAAUGUAGUAGACGAGGAGGAGGUUUAUCGAAUUUUCGGCGGAUGCCUCCAAA reads 3100 ± 280 µM.
Same read-out and setting: the figure for AUAAAAGCGCCUGAACUACAGAAAUGUAGUUGACGAGGAGGAGGUUUAUCGAAUUUUCGGCGGAUGCGUCCAAA is 624 ± 230 µM; for AUAAAAGCGCCGGAACUACAGAAAUGUAGUUGACGAGGAGGAGGUUUAUCGAAUUUUCUGCGGAUGCCUCCAAA it is 1330 ± 1200 µM.
As to AUAAAAGCGCCGGAACUACAGAAAUGUAGUUGACGAGGAGGAGGCUUAUCGAAUUUUCGGCGGAUGCCUCCAAA, the KM was found to be 2510 ± 620 µM.
Still for that read-out and setting: the figure for AUAAAAGCGCCAGCACUACAGAAAUGUAGUUGACGAGGAGGAGGUUUAUUGAAUUUUCGGCGGAUGCCUCCAAA is 12000 ± 9900 µM.
AUAAAAGCGCCAUAGCUACAGAAAUGUAGUUGACGAGGAGGAGGUUUAUCGAAUUUUCGGCGGAUGCCUCCAAA: the KM is 5260 ± 3600 µM.
Same read-out and setting: the figure for AUAAAAGCGCCUGAACUACAGAAAUGUAGUUGACGAGGAGGAGGUUAAUCGAAUUUUCGGCGGAUGCCUCCAAA is 1490 ± 570 µM.
The same measure, in the same setting: the result for AUAAAAGCGCCAGCACUACAGAAAUGUAGUUGCCGAGGAGGAGGUUUAUCGAAUUUUCGGCGGAUGCCUCCAAA reads 55.9 ± 44 µM.

Another series covers variants of B1. The experiment in a line: self-cleavage kobs at 640 uM GlcN6P; higher = faster cleavage; RNA array. The settings on record: with glucosamine-6-phosphate. In outline:
as §1
As for AUAAAAGCGCCAAAACUACAGAAAUGUAGUUGACGAGGAAGAGGUUUAUCGAAUUUUCGGCGGAUGCCUCCAAA, the “self-cleavage kobs at 640 uM GlcN6P” value was 1.29e-05 ± 1.1e-05 s⁻¹.

The next series covers variants of B1. Nature of the series: self-cleavage kobs at 10000 uM GlcN6P; higher = faster cleavage; RNA array. The following applies: with glucosamine-6-phosphate. The essentials:
as §1
As to AUAAAAGCGCCUGAACUACAGAAAUGUAGUUGACGAUGAGGAGGUUUAUCGAAUUUUCGGCGGAUGCCUCCAAA, the “self-cleavage kobs at 10000 uM GlcN6P” value came to 1.29e-05 ± 7.2e-06 s⁻¹.
Take AUAAAAGCGCCAGCACUACAGAAAUGUAGCUGACGAGGAGGAGGUUUAUCGAAUUUUCGGCGGAUGCCUCCAAA: the “self-cleavage kobs at 10000 uM GlcN6P” value came to 1.49e-05 ± 1.2e-05 s⁻¹.

In a further series the parent is B1. Nature of the series: self-cleavage kobs at 2500 uM GlcN6P; higher = faster cleavage; RNA array. The following applies: with glucosamine-6-phosphate. The essentials:
as §1
In the case of AUAAAAGCGCCAGCACUACAGAAAUGUAGCUGACGAGGAGGAGGUUUAUCGAAUUUUCGGCGGAUGCCUCCAAA, the “self-cleavage kobs at 2500 uM GlcN6P” value was found to be 1.48e-05 ± 1.4e-05 s⁻¹.

Variants of B1 are the subject of another series. Nature of the series: self-cleavage kobs at 40 uM GlcN6P; higher = faster cleavage; RNA array. The settings on record: with glucosamine-6-phosphate. The essentials: as §1
Turning to AUAAAAGCGCCAUAGCUACAGAAAUGUAGUUGACGAGGAGGAGGUUUAUCGAAUUUUCGGCGGAUGCCUCCAAA, the “self-cleavage kobs at 40 uM GlcN6P” value came out at 3.8e-05 ± 2.9e-05 s⁻¹.

For the origin of these results see the supplement of paper PMC7125110.
